In patent EP2958933B1, “CROSSLINKED PEPTIDE HYDROGELS” (Agency for Science, Technology and Research, priority 2013, dated 2018):

Test: Purification of gels by regular water change (removal of unreacted H2O2 and residual acid)
Settings: for H2O2 removed: gel cast in 48-well plate with 0.06% H2O2, water replaced regularly

LIVAGKC [LK6C, cross-linkable peptide, LK6 modified with a cysteine residue at the C-terminus; forms hydrogels]
H2O2 removed (after 4 hrs): > 96%
H2O2 removed (after 7 hrs): > 99%
residual acid removed (water replaced regularly, after 8 hrs): > 85%
